Consider one molecule from article PMC4234486.

These are yes or no findings as the source states them, for the method shown. Binding seen in cells or lysates may run through a third protein. Some results given as binding are weak or reduced against the parent protein; the word gives no strength. Where a sequence is shown, tags or fusion partners need not be part of it.

The target in this test is T1, Cip2-TAP (fission yeast (S. pombe)) (UniProt Q09868).
T1 sequence: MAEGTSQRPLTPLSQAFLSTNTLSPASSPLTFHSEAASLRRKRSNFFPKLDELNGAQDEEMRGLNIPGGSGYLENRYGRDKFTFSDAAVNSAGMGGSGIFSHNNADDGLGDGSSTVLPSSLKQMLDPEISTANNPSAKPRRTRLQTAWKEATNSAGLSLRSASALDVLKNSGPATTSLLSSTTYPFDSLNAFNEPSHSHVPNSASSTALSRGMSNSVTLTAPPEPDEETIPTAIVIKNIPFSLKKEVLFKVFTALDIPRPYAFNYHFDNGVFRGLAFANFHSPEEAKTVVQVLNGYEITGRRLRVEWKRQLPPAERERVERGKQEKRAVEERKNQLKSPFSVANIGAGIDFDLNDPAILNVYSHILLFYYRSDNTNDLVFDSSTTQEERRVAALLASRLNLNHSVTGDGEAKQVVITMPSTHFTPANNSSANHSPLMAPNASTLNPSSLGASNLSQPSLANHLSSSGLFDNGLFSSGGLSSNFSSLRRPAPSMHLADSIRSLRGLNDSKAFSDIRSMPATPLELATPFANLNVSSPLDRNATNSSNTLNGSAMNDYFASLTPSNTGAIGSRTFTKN
Description: co-IP; fission yeast cell extracts; TAP-tagged protein immunoprecipitated with monoclonal antibodies against protein A; Western blot with peroxidase anti-peroxidase complexes (TAP) and anti-myc; also after treating 250 ul of extract with 200 units of RNase I for 15 minutes at room temperature (interaction kept). For orientation: In western blotting, separated proteins are transferred to a membrane and probed.

B1: Sty1-myc (protein, UniProt Q09892 1-349)
chain: MAEFIRTQIFGTCFEITTRYSDLQPIGMGAFGLVCSAKDQLTGMNVAVKKIMKPFSTPVLAKRTYRELKLLKHLRHENIISLSDIFISPFEDIYFVTELLGTDLHRLLTSRPLETQFIQYFLYQILRGLKFVHSAGVIHRDLKPSNILINENCDLKICDFGLARIQDPQMTGYVSTRYYRAPEIMLTWQKYNVEVDIWSAGCIFAEMIEGKPLFPGRDHVNQFSIITELLGTPPMEVIETICSKNTLRFVQSLPQKEKVPFAEKFKNADPDAIDLLEKMLVFDPRKRISAADALAHNYLAPYHDPTDEPVADEVFDWSFQDNDLPVETWKVMMYSEVLSFHNMDNELQS
In the case of B1, the binding result is on record as “binds”.
